# From PubChem BioAssay AID662 (National Center for Advancing Translational Sciences (NCATS), 2007)
# Values joined by “and” are separate entries in the source; they are usually repeats but may differ in a detail not shown here. Equal entries are not always repeated. The list shows a part of the results. The main result of the screen is listed elsewhere. These columns were measured beside it and carry no call. Compounds called inactive in the main read-out are mostly missing here. Potencies come from curve fits of mixed quality, noted in brackets.
# Experiment: Cell signaling CRE-BLA (Fsk stim)
# Conditions: CHO CRE-bla reporter (cAMP response element driving beta-lactamase), forskolin EC10, beta-lactamase ratio; measured here: 460 nm blue channel
# In short: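 qHTS titration format; CRE-bla CHO reporter; stimulus EC10 NKH 477, a water-soluble forskolin. Read: CCF4 460/530 nm ratio. Potency expressed as AC50 for activators or inhibitors.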
row,SMILES,AC50
1,c1ccc(Cn2nnc3c(Nc4ccc5c(c4)OCO5)nc(C4CC4)nc32)cc1,"10 µM [rising, partial curve]"
2,COc1ccc(C2C3=C(CCCC3=O)Nc3nc(C(F)(F)F)nn32)c(OC)c1OC (stereo unspecified),"2 µM [rising, partial curve]"
3,CCc1nc(OCCN(CC)CC)c2oc3ccccc3c2n1,"25.1 µM [rising, single point]"
4,O=C(CSc1ncn(-c2ccccc2)n1)Nc1nc2c(s1)CCCC2,"20 µM [rising, single point]"
5,O=C1N(CN2CCN(c3cccc(Cl)c3)CC2)c2ccccc2C12OCCCO2,"3.16 µM [falling, full curve]"
6,Cc1nc2cnc(Oc3cccc(Cl)c3)nc2n(C[C@H]2CCCO2)c1=O,"10 µM [rising, single point]"
7,O=C(OCC(=O)N1CCOCC1)c1ccc[nH]c1=O,"3.16 µM [rising, single point]"
8,COC(=O)c1ccc(NC(=O)CSc2nnc(Cc3cccn3C)n2-c2ccc(F)cc2)cc1,"12.6 µM [falling, partial curve]"
9,COc1cc(NC(=O)c2ccco2)c(OC)cc1NC(=O)CSc1ncc(-c2ccc(F)cc2)[nH]1,"15.8 µM [rising, single point]"
10,CC1(C)CC(C)(O)P(=O)(c2ccccc2)O1 (stereo unspecified),"0.00316 µM [falling, full curve, poor fit]"
11,O=C(Nc1ccc2oc(-c3ccncc3)nc2c1)c1ccccc1F,"12.6 µM [rising, partial curve]"
12,O=C(C1CCN(c2ccc(N3CCOCC3)nn2)CC1)N1CCc2ccccc2C1,"25.1 µM [rising, single point]"
13,CCN1C(=O)c2cccc3c(NC(=O)C4CCCCC4)ccc1c23,"7.94 µM [rising, partial curve]"
14,CCNc1ncc2nc(-c3ccc(Cl)cc3)c(=O)n(C[C@H]3CCCO3)c2n1,"10 µM [rising, partial curve]"
15,Cn1cccc1C(=O)N1CCC2(CCCN(C(c3ccccc3)c3ccccc3)C2)CC1,"3.98 µM [rising, partial curve]"
16,Cc1ccc(C)c(S(=O)(=O)NCCOC(=O)Nc2sc(=S)n(C)c2C)c1,"0.398 µM [rising, full curve]"
17,COc1cc(OC)nc(NC(=O)CN2CCN(c3ccc(F)cc3)CC2)n1,"3.98 µM [falling, partial curve]"
18,COCCn1c(=O)c(-c2cc(F)cc(F)c2)nc2cnc(N(C)C)nc21,"12.6 µM [rising, partial curve]"
19,COC(=O)c1cccc(CSc2nnc(C)s2)c1,"25.1 µM [rising, single point]"
20,CC(OC(=O)c1nn(C)c(=O)c2ccccc12)C(=O)NCc1ccc2c(c1)OCO2 (stereo unspecified),"12.6 µM [rising, single point]"
21,Cc1cc(C)nc(Sc2c(C)nn(-c3ccccc3)c2C)n1,"6.31 µM [falling, partial curve, poor fit]"
22,CCOc1ccc(NC(=O)C(CC)NC(=O)c2ccccc2CO)cc1 (stereo unspecified),"0.126 µM [rising, full curve]"

row,SMILES,AC50
1,CCOC(=O)C1CCN(C(=O)c2cc3cc4cc(OC)ccc4nc3o2)CC1,"1.26 µM [rising, full curve]"
2,N=c1c(C(=O)NCc2ccco2)cc2c(=O)n3ccccc3nc2n1Cc1ccccc1,"12.6 µM [rising, partial curve]"
3,CCc1cc(C(=O)Cc2ccc(F)cc2)c(O)cc1O,"20 µM [falling, single point]"
4,CC(=O)N1C2(C=CC1(C)C(=O)NCc1ccc(C)o1)CCCCC2 (stereo unspecified),"12.6 µM [falling, single point]"
5,Cc1cc(NC(=O)c2noc3c2CCCC3)nn1Cc1ccc(Cl)cc1,"7.94 µM [rising, partial curve, poor fit]"
6,Cc1nnc(SCc2cc(=O)n3[nH]cnc3n2)s1,"25.1 µM [rising, single point]"
7,CCOCCCNC(=O)CCNS(=O)(=O)c1ccc(C)cc1,"20 µM [falling, single point]"
8,COc1ccc(CCNC(=O)CCCn2c(SCC#N)nc3ccccc3c2=O)cc1OC,"10 µM [rising, partial curve, poor fit]"
9,C=CCn1c(=O)c(C(=O)Nc2ccccc2OC)c(O)c2ccccc21,"1 µM [falling, partial curve]"
10,COc1ccc(S(=O)(=O)N2CCN(c3ccc4nnc(-c5ccc(F)cc5)n4n3)CC2)cc1,"10 µM [rising, partial curve]"
11,COc1ccc(C[C@H](C)NC[C@@H](O)c2ccc(O)c(NC=O)c2)cc1,"31.6 µM [falling, partial curve, poor fit]"
12,COC(=O)c1ccc(COc2ccc(C3C4=C(CCCC4=O)Nc4onc(C)c43)cc2)cc1 (stereo unspecified),"7.94 µM [rising, partial curve]"
13,COc1nccc(Nc2ccccc2)c1C#N,"25.1 µM [rising, single point]"
14,CC(=O)N1CCc2cc(S(=O)(=O)NC(C(=O)Nc3nc(C)cs3)C(C)C)ccc21 (stereo unspecified),"0.0158 µM [falling, full curve, poor fit]"
15,CCOC(=O)c1c(C)[nH]c(C(=O)COC(=O)c2ccccc2NC(=O)c2ccco2)c1C,"1.58 µM [rising, full curve]"
16,CCOC(=O)c1ccc(N=c2sc(C(=O)OC)cc(=O)n2CCCN2CCOCC2)cc1,"12.6 µM [falling, partial curve]"
17,COc1cc2cc(C(=O)Nc3ccccc3)c(N)nc2cc1OC,"2 µM [rising, full curve]"
18,Cc1ccc(NC(=O)c2ccccc2)s1,"0.01 µM [rising, full curve, poor fit]"
19,O=S(=O)(NC1CCCCC1NS(=O)(=O)c1ccc(F)cc1)c1ccc(F)cc1 (stereo unspecified),"0.00398 µM [falling, full curve, poor fit]"
20,COc1ccc2[nH]cc(CCNc3nc(-c4ccc(N(C)C)cc4)nc4ccccc34)c2c1,"1 µM [rising, full curve]"
21,N#C[C@@H](Cc1ccc(O)c(O)c1)C(=O)N1CCc2ccccc21,"7.94 µM [falling, full curve]"
22,Cc1cccc(-c2nsc(SCC(=O)Nc3cc(C)on3)n2)c1,"2.51 µM [rising, partial curve]"

row,SMILES,AC50
1,COC(=O)C1C(=O)C2=C(CC1C)NC(=O)CC2c1cccc(C)c1 (stereo unspecified),"0.0794 µM [rising, full curve]"
2,CS(=O)(=O)c1ccc(Cl)c(NC(=O)COC(=O)CNC(=O)c2ccc(Br)o2)c1,"0.01 µM [falling, full curve, poor fit]"
3,CCNc1ncc2nc(-c3cc(F)cc(F)c3)c(=O)n(Cc3cccs3)c2n1,"0.631 µM [rising, full curve]"
4,COc1ccccc1Nc1nc(N)nc(CSCCO)n1,"12.6 µM [falling, partial curve, poor fit]"
5,CN(C)C(=O)c1ccc(-c2nccc(-n3ccnc3)n2)cc1,"3.98 µM [rising, single point]"
6,COC(=O)C1=C(C)N(C)C(C)=C(C(=O)OC)C1c1ccccc1C,"15.8 µM [rising, single point]"
7,CCNc1nc(NCC)nc(OCCNS(=O)(=O)c2cc(C)ccc2C)n1,"10 µM [rising, partial curve]"
8,Cc1occc1C(=O)Nc1nccs1,"10 µM [falling, single point]"
9,CCOC(=O)C1CCCN(c2cc(C)nc3cc(-c4ccc(F)cc4)nn23)C1 (stereo unspecified),"20 µM [rising, partial curve]"
10,Cc1ccc(C)c(NC(=O)CSc2nnc(CCCCCNC(=O)OC(C)(C)C)o2)c1,"20 µM [falling, single point]"
11,Cc1ccc(N2C(=O)c3oc4ccccc4c(=O)c3C2c2cccc(O)c2)nc1 (stereo unspecified),"25.1 µM [falling, single point]"
12,CCOC(=O)c1cnn(-c2cc(C)nc3c(-c4ccccc4)cnn23)c1N,"12.6 µM [falling, partial curve]"
13,Cc1cccc(-n2ncc3c(NC4CCCCC4)ncnc32)c1,"7.94 µM [rising, partial curve]"
14,COc1cc2c(cc1OC)-c1cc(NC3CCCCC3)nc(=O)n1CC2,"2.51 µM [rising, full curve]"
15,Fc1cccc(CSc2ncnc3c2oc2ccccc23)c1,"1.26 µM [rising, partial curve]"
16,CCCn1c(=O)c(C(=O)NCc2ccc(OC)c(OC)c2)c(O)c2ccccc21,"2.51 µM [rising, partial curve]"
17,CCOC(=O)CSc1nc2c(c(=O)n(Cc3ccccc3Cl)c(=O)n2C)n1C,"20 µM [falling, single point]"
18,CCCCCCN(C(=O)CCCCCN1C(=O)NC(c2ccc(C(C)(C)C)cc2)C(C(=O)OCc2ccccc2)=C1C)C(C(=O)NCCCC)c1ccc(OCC(=O)OC)c(C(=O)OC)c1 (stereo unspecified),"3.16 µM [rising, single point]"
19,Cc1ccc2cc3cc(C(=O)NCc4ccco4)oc3nc2c1,"0.00398 µM [falling, full curve, poor fit]"
20,O=C(O)C1(c2cccc(Cl)c2)CCC1,"0.1 µM [falling, full curve]"
21,CCn1c(SCC(=O)N2CCCc3ccccc32)nc2c1c(=O)n(C)c(=O)n2C,"10 µM [rising, single point]"
22,Brc1c(NC2=NCCN2)ccc2nccnc12,"25.1 µM [rising, partial curve] and 20 µM [rising, partial curve, poor fit]"

# Rewritten bar-delimited: entries from further up
row | SMILES | AC50
3 | CCc1nc(OCCN(CC)CC)c2oc3ccccc3c2n1 | 25.1 µM [rising, single point]
6 | Cc1nc2cnc(Oc3cccc(Cl)c3)nc2n(C[C@H]2CCCO2)c1=O | 10 µM [rising, single point]
2 | N=c1c(C(=O)NCc2ccco2)cc2c(=O)n3ccccc3nc2n1Cc1ccccc1 | 12.6 µM [rising, partial curve]
14 | COc1cc2c(cc1OC)-c1cc(NC3CCCCC3)nc(=O)n1CC2 | 2.51 µM [rising, full curve]
